Results as given in the supplement of paper PMC6411743.
± gives the standard deviation of the averaged measurements. The entries are a selection whose mix differs from that of the whole data set.

Amino acid sequences for entries named in this document (tags omitted). A change or cut given only in a name is not applied to a line headed by its entry.
UniProt P60983, whole entry: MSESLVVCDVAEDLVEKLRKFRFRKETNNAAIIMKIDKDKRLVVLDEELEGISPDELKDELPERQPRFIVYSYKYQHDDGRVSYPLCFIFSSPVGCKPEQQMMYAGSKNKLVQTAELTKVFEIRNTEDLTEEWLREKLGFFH
UniProt P61225: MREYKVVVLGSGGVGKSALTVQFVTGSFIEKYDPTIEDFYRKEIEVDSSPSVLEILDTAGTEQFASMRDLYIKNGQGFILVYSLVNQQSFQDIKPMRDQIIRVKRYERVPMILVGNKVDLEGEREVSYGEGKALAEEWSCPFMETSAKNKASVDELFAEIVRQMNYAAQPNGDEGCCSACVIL
UniProt P60228, whole entry: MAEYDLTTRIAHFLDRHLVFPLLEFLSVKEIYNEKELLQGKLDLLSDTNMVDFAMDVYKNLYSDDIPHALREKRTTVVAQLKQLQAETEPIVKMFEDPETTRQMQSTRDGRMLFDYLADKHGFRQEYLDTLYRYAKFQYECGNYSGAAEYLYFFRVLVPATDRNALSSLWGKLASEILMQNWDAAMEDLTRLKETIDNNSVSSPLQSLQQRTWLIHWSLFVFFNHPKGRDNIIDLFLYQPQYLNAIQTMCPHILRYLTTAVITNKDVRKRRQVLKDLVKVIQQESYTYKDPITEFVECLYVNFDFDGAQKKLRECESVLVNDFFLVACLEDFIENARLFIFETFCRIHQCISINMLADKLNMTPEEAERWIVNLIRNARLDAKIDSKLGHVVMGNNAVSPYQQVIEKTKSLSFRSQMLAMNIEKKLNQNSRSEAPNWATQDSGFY
UniProt Q06265, whole entry: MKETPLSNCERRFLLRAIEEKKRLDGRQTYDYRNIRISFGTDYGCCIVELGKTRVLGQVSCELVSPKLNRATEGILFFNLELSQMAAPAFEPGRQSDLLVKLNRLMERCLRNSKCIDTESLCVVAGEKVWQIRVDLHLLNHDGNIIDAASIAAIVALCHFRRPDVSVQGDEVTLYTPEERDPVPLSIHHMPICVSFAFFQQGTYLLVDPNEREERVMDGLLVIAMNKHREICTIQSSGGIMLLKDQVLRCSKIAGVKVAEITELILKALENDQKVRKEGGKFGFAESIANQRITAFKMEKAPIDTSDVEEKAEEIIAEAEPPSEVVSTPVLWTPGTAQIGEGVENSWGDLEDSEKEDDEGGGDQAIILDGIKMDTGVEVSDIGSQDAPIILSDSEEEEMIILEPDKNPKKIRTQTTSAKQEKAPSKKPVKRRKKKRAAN
UniProt P61081: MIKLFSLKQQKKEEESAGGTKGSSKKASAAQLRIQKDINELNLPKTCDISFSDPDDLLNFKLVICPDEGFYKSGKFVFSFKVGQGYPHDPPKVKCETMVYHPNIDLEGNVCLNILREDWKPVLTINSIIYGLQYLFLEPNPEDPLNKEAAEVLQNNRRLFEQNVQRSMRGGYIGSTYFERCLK
UniProt P62318, whole entry: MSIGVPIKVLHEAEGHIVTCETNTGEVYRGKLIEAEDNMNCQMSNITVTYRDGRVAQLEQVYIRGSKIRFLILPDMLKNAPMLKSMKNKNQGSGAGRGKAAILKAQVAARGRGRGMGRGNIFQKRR
UniProt P59190: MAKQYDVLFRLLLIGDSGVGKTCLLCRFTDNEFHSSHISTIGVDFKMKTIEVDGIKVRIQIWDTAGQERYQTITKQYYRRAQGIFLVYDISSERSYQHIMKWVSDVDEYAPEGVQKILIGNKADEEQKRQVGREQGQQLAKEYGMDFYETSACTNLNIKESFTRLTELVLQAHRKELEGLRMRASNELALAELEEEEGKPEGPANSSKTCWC
UniProt P61604, whole entry: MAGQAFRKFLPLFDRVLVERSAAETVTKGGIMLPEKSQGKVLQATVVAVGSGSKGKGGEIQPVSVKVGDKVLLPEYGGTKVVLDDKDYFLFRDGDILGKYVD
UniProt P98179: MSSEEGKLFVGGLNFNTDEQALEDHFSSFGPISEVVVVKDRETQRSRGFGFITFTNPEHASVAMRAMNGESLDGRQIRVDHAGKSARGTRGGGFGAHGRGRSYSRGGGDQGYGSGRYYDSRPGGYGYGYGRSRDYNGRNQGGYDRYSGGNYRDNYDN
UniProt Q01167: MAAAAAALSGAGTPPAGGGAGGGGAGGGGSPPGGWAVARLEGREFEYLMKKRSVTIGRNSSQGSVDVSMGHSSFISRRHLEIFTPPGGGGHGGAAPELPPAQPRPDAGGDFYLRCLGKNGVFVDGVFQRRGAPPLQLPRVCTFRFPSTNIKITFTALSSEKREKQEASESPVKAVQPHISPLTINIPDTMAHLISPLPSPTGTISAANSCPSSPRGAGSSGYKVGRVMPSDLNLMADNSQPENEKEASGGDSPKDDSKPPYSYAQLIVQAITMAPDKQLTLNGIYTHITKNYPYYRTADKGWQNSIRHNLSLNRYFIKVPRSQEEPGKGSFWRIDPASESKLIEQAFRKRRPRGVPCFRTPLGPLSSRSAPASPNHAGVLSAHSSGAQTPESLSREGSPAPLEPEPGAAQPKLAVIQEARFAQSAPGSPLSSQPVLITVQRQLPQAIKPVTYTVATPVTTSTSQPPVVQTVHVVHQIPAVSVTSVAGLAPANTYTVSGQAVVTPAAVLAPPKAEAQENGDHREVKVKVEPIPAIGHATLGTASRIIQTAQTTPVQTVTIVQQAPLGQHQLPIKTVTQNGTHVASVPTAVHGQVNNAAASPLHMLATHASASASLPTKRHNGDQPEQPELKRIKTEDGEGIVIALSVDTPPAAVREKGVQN
UniProt P62195, whole entry: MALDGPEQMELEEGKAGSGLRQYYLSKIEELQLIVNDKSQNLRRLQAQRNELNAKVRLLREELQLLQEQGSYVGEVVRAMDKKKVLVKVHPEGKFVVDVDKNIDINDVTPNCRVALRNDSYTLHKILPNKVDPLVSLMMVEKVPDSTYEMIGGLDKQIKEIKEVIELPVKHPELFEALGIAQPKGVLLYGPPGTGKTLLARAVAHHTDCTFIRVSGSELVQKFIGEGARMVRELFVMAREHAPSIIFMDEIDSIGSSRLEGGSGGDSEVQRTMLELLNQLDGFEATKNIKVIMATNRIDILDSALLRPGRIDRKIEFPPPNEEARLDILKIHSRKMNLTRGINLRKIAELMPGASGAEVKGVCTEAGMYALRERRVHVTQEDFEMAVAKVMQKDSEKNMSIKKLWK
UniProt P62316, whole entry: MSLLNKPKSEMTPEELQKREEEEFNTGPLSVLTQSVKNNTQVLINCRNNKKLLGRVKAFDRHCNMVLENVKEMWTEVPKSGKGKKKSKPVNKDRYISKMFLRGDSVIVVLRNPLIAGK
UniProt P61764, whole entry: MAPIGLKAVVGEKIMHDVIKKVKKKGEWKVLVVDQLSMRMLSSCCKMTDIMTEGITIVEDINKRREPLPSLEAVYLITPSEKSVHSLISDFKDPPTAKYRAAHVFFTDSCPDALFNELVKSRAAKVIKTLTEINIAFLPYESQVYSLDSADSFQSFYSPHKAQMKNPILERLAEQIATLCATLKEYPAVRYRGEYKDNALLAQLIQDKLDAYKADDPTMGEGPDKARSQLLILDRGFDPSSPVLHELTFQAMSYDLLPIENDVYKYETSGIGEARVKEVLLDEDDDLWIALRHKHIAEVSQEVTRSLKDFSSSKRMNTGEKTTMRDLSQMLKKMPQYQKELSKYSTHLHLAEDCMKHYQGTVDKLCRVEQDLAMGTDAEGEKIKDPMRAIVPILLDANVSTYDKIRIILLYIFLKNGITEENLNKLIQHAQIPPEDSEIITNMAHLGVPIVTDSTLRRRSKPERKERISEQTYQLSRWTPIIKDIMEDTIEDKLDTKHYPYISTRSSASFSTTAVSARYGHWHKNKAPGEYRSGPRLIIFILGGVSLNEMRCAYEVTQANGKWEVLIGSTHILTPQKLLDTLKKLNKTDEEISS
UniProt P62140, whole entry: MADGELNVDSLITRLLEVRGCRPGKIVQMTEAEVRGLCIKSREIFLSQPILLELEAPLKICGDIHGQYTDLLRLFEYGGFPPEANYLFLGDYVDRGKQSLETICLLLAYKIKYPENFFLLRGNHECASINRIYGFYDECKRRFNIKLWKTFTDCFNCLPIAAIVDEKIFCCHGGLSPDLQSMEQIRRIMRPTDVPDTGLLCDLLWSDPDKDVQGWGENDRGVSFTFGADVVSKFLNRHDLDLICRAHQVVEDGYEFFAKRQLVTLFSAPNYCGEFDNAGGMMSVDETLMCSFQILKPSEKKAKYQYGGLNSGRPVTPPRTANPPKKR
UniProt P68543: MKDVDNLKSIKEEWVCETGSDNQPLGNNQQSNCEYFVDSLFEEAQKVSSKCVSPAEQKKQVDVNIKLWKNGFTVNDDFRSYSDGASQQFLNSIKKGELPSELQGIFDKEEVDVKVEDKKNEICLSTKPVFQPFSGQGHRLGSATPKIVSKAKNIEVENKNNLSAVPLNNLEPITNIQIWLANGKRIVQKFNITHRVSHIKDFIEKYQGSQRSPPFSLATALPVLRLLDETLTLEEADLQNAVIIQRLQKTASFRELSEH
UniProt P61758, whole entry: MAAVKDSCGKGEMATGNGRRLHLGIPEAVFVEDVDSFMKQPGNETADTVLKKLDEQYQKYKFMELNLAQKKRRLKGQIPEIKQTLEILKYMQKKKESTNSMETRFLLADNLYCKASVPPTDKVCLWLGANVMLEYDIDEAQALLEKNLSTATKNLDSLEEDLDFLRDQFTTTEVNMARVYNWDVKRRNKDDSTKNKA
UniProt Q01196, whole entry: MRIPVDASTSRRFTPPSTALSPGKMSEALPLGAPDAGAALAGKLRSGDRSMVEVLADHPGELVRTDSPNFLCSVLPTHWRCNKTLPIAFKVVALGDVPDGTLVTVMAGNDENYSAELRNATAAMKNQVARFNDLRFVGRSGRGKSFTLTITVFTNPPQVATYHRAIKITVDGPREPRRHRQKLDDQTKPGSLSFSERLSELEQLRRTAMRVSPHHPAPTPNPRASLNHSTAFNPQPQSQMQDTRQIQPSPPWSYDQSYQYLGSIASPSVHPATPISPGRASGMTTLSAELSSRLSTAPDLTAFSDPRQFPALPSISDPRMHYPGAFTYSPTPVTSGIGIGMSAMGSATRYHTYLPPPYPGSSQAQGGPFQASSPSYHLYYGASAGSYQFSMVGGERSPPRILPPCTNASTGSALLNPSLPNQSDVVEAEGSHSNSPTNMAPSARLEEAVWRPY
UniProt Q01543: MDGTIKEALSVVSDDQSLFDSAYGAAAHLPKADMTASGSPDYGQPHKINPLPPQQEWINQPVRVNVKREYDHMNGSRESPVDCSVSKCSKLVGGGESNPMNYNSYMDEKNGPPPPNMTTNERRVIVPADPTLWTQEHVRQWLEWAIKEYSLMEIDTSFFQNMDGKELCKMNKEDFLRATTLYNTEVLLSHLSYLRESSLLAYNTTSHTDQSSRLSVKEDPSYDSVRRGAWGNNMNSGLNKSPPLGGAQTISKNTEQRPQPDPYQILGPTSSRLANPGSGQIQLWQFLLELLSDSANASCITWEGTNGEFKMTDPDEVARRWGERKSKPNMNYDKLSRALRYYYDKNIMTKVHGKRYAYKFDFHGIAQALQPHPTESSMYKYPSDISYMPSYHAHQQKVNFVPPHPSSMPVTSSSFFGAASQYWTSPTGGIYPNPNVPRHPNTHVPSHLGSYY
UniProt Q04760: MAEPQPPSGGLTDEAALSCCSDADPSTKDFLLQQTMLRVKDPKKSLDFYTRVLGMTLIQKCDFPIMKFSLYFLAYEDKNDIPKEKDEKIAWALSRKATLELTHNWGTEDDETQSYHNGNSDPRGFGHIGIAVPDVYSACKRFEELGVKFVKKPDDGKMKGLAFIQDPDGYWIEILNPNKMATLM
UniProt P78371: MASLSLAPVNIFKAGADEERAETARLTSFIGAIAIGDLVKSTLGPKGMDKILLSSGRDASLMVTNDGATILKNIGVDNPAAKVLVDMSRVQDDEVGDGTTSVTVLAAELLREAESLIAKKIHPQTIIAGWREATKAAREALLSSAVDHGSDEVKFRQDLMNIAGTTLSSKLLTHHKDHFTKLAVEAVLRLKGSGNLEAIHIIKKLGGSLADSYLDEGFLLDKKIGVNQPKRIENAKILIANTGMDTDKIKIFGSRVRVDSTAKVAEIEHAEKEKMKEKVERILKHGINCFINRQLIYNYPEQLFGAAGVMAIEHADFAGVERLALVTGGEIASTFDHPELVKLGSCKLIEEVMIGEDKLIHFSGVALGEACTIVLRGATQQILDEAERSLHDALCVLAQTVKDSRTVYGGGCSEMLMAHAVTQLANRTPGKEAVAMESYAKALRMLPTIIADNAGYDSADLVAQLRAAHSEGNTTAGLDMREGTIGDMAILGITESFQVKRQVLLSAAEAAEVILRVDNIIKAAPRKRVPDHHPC
UniProt Q00535, whole entry, looked up: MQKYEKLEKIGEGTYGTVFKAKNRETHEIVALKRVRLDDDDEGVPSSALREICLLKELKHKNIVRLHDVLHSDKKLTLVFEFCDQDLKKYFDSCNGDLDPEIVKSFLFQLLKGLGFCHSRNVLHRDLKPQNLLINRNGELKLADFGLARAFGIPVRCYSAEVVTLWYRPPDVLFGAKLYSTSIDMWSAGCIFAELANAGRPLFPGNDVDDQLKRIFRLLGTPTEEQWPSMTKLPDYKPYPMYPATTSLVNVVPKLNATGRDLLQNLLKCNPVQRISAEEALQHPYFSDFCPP
UniProt P61960, whole entry: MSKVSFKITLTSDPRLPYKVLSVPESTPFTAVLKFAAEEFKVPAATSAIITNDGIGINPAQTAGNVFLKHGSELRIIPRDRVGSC

Compound: Nc1ncnc2c1ncn2[C@@H]1O[C@H](COP(=O)(O)OP(=O)(O)NP(=O)(O)O)[C@@H](O)[C@H]1O [adenylyl imidodiphosphate]
Assay: NP40-soluble protein abundance relative to vehicle (solubility fold change) (ratio); higher = more soluble protein in presence of AMP-PNP
Method in brief: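 Data come from three independent experiments in which Dounce-homogenised Jurkat crude lysate was treated at eight concentrations from 0.1 to 10 mM. Treatment ran 10 min at room temperature and then 3 min at 37 °C, after which 0.8% NP40 and benzonase were added for 60 min at 4 °C before ultracentrifugation. The supernatant underwent TMT labelling and LC-MS/MS, and vsn-normalised intensities were expressed as fold change against the detergent-processed vehicle in each replicate.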

Target	NP40-soluble protein abundance (concentration: 1mM)	NP40-soluble protein abundance (concentration: 2mM)	NP40-soluble protein abundance (concentration: 4mM)	NP40-soluble protein abundance (concentration: 6mM)	NP40-soluble protein abundance (concentration: 8mM)	NP40-soluble protein abundance (concentration: 10mM)
UniProt P63092 and related entries	0.972 ± 0.058	0.922 ± 0.039	0.953 ± 0.05	0.981 ± 0.052	1 ± 0.05	0.959 ± 0.021
GMFB (UniProt P60983)	1.02 ± 0.035	1.06 ± 0.037	1.03 ± 0.036	1.01 ± 0.042	1.04 ± 0.045	0.985 ± 0.075
UniProt P98095 and related entries	1.01 ± 0.036	1.05 ± 0.047	1.03 ± 0.015	1.01 ± 0.02	0.984 ± 0.028	1.03 ± 0.049
UniProt P78346 and related entries	1.03 ± 0.054	0.956 ± 0.082	1.08 ± 0.094	1.01 ± 0.016	1.1 ± 0.081	1.02 ± 0.055
IGBP1 (UniProt P78318)	0.988 ± 0.052	1.03 ± 0.036	0.962 ± 0.042	0.898 ± 0.01	0.916 ± 0.021	0.859 ± 0.023
UniProt P62633 and related entries	1.03 ± 0.044	1.11 ± 0.081	1.02 ± 0.1	0.996 ± 0.031	1.03 ± 0.037	0.984 ± 0.053
UniProt P61225	0.925 ± 0.01	0.863 ± 0.098	0.914 ± 0.021	0.897 ± 0.015	0.898 ± 0.012	0.862 ± 0.041
UniProt P60228	1.04 ± 0.073	1.04 ± 0.077	1.1 ± 0.11	1.18 ± 0.12	1.24 ± 0.12	1.33 ± 0.2
UniProt Q02078-2|Q02078-4|Q02078-6|Q02078-5	1.0199 ± 0.0007	1.03 ± 0.017	1.023 ± 0.0072	0.98 ± 0.014	0.9784 ± 0.0097	0.98 ± 0.053
UniProt Q05397 and related entries	0.993 ± 0.022	1.03 ± 0.043	0.978 ± 0.011	0.963 ± 0.025	0.983 ± 0.039	0.963 ± 0.026
UniProt Q06265 and related entries	0.978 ± 0.04	0.95 ± 0.031	1.08 ± 0.1	1.14 ± 0.092	1.22 ± 0.11	1.23 ± 0.17
UniProt P67870 and related entries	1.01 ± 0.035	1.02 ± 0.058	1.01 ± 0.031	0.99 ± 0.046	0.993 ± 0.046	0.986 ± 0.042
UniProt Q00266 and related entries	1.04 ± 0.071	0.993 ± 0.026	1 ± 0.029	0.978 ± 0.024	0.994 ± 0.039	0.946 ± 0.032
PLCB3 (UniProt Q01970)	1.01 ± 0.027	0.9949 ± 0.0042	1.04 ± 0.017	0.995 ± 0.015	1 ± 0.023	0.991 ± 0.028
UniProt P61081	1.01 ± 0.019	1.004 ± 0.0095	0.972 ± 0.025	0.984 ± 0.02	0.96 ± 0.028	0.964 ± 0.049
UniProt P62318 and related entries	1.07 ± 0.086	1.12 ± 0.12	1.19 ± 0.099	1.22 ± 0.017	1.29 ± 0.09	1.32 ± 0.056
UniProt P59190	0.994 ± 0.025	1.04 ± 0.12	0.98 ± 0.025	0.993 ± 0.033	1.02 ± 0.041	0.9965 ± 0.0069
UniProt P61604 and related entries	0.956 ± 0.091	1.04 ± 0.054	0.973 ± 0.04	0.901 ± 0.016	0.884 ± 0.033	0.916 ± 0.036
RBM3 (UniProt P98179)	0.9777 ± 0.0027	0.994 ± 0.044	0.992 ± 0.021	0.985 ± 0.012	1.04 ± 0.022	1.03 ± 0.039
FOXK2 (UniProt Q01167)	0.991 ± 0.046	1 ± 0.057	0.999 ± 0.063	0.981 ± 0.033	0.961 ± 0.016	0.974 ± 0.057

Target	NP40-soluble protein abundance (concentration: 1mM)	NP40-soluble protein abundance (concentration: 2mM)	NP40-soluble protein abundance (concentration: 4mM)	NP40-soluble protein abundance (concentration: 6mM)	NP40-soluble protein abundance (concentration: 8mM)	NP40-soluble protein abundance (concentration: 10mM)
MTPN (UniProt P58546)	0.959 ± 0.04	1.08 ± 0.11	0.943 ± 0.029	0.981 ± 0.011	0.892 ± 0.05	0.928 ± 0.084
RAB4B (UniProt P61018)	0.942 ± 0.027	0.918 ± 0.038	0.996 ± 0.014	1.02 ± 0.034	1.02 ± 0.081	1.02 ± 0.023
UniProt P61970	0.9917 ± 0.0085	0.956 ± 0.021	0.96 ± 0.025	0.993 ± 0.034	0.996 ± 0.046	0.946 ± 0.046
UniProt Q02809 and related entries	1.04 ± 0.061	1.04 ± 0.028	1.03 ± 0.067	1.05 ± 0.067	1.05 ± 0.066	1.04 ± 0.074
UniProt P61244 and related entries	0.897 ± 0.059	0.921 ± 0.018	0.883 ± 0.06	0.86 ± 0.043	0.851 ± 0.078	0.86 ± 0.048
COG7 (UniProt P83436)	1.011 ± 0.0039	1.02 ± 0.035	0.999 ± 0.032	0.931 ± 0.042	0.919 ± 0.023	0.941 ± 0.031
UniProt P62753	0.975 ± 0.059	0.946 ± 0.032	0.925 ± 0.11	0.925 ± 0.052	0.883 ± 0.073	0.956 ± 0.14
UniProt P62195	0.892 ± 0.068	0.86 ± 0.064	0.887 ± 0.12	0.92 ± 0.053	0.932 ± 0.055	0.917 ± 0.12
UniProt P62750	1 ± 0.038	1.01 ± 0.048	0.913 ± 0.052	0.844 ± 0.064	0.755 ± 0.07	0.886 ± 0.15
UniProt P62316	0.981 ± 0.025	1.05 ± 0.084	1.02 ± 0.05	1.23 ± 0.14	1.25 ± 0.064	1.33 ± 0.13
UniProt P61764 and related entries	0.982 ± 0.027	0.951 ± 0.056	0.9859 ± 0.0094	0.9765 ± 0.0046	0.998 ± 0.023	0.966 ± 0.017
RPP38 (UniProt P78345)	0.925 ± 0.042	1 ± 0.054	1.01 ± 0.044	1.01 ± 0.078	1.01 ± 0.086	1.01 ± 0.031
UniProt P63010 and related entries	0.986 ± 0.029	0.957 ± 0.03	0.957 ± 0.034	1.04 ± 0.016	1.03 ± 0.036	1.02 ± 0.068
UniProt Q06124-2	0.989 ± 0.026	0.964 ± 0.011	0.9948 ± 0.0029	0.989 ± 0.033	1 ± 0.037	0.991 ± 0.034
UniProt P56282 and related entries	0.973 ± 0.03	0.933 ± 0.065	0.968 ± 0.026	0.952 ± 0.036	0.942 ± 0.041	0.951 ± 0.045
MRPS35 (UniProt P82673)	1.02 ± 0.086	1 ± 0.065	0.918 ± 0.079	0.92 ± 0.17	0.909 ± 0.12	0.898 ± 0.13
UniProt P62140	1.05 ± 0.033	1.01 ± 0.025	1.04 ± 0.041	1.02 ± 0.011	1.06 ± 0.034	1.01 ± 0.036
KHDRBS1 (UniProt Q07666)	1.07 ± 0.037	1.16 ± 0.074	1.1 ± 0.03	1.13 ± 0.061	1.14 ± 0.073	1.16 ± 0.025
UniProt P61026	0.927 ± 0.039	0.888 ± 0.025	0.888 ± 0.019	0.986 ± 0.075	0.944 ± 0.065	0.962 ± 0.015
UniProt P68543 and related entries	1.006 ± 0.0023	1.11 ± 0.16	0.9762 ± 0.0066	0.979 ± 0.012	0.9586 ± 0.0047	0.971 ± 0.025

Target	NP40-soluble protein abundance (concentration: 1mM)	NP40-soluble protein abundance (concentration: 2mM)	NP40-soluble protein abundance (concentration: 4mM)	NP40-soluble protein abundance (concentration: 6mM)	NP40-soluble protein abundance (concentration: 8mM)	NP40-soluble protein abundance (concentration: 10mM)
VBP1 (UniProt P61758)	0.912 ± 0.051	0.962 ± 0.057	0.885 ± 0.032	0.89 ± 0.048	0.882 ± 0.028	0.866 ± 0.029
UniProt Q03001 and related entries	1.01 ± 0.027	0.951 ± 0.055	1.02 ± 0.026	1 ± 0.05	1 ± 0.084	1.04 ± 0.082
UniProt Q05469 and related entries	1.012 ± 0.0077	0.994 ± 0.021	1.003 ± 0.0044	0.9941 ± 0.0017	1.003 ± 0.01	0.989 ± 0.016
UniProt P56937 and related entries	0.995 ± 0.021	0.926 ± 0.084	0.949 ± 0.012	0.972 ± 0.03	0.965 ± 0.015	0.949 ± 0.036
EIF6 (UniProt P56537)	1.02 ± 0.036	0.959 ± 0.041	1.03 ± 0.015	0.997 ± 0.014	1.01 ± 0.038	0.978 ± 0.021
UniProt Q01196-11|Q01196-8|Q01196 and related entries	1.02 ± 0.031	1.05 ± 0.013	1.042 ± 0.0059	1.05 ± 0.046	1.03 ± 0.025	1.089 ± 0.01
UniProt P62256	1.02 ± 0.035	1.09 ± 0.093	1.01 ± 0.015	1.04 ± 0.012	0.994 ± 0.022	1 ± 0.015
SRP54 (UniProt P61011)	1 ± 0.014	0.9835 ± 0.009	1.03 ± 0.03	1.11 ± 0.053	1.13 ± 0.046	1.13 ± 0.082
FLI1 (UniProt Q01543)	1.05 ± 0.025	1.1 ± 0.049	1.08 ± 0.041	1.04 ± 0.029	1.05 ± 0.023	1.07 ± 0.049
HMGCS1 (UniProt Q01581)	0.976 ± 0.018	0.944 ± 0.025	0.954 ± 0.027	0.95 ± 0.019	0.942 ± 0.025	0.936 ± 0.019
UniProt Q00325 and related entries	0.934 ± 0.063	0.855 ± 0.052	0.952 ± 0.077	1.06 ± 0.12	1.12 ± 0.095	1.1 ± 0.092
UniProt P61962	0.989 ± 0.013	0.913 ± 0.12	0.945 ± 0.042	0.932 ± 0.022	0.958 ± 0.013	0.898 ± 0.034
UniProt P56270-2	1.05 ± 0.047	1.09 ± 0.068	1.05 ± 0.097	1.06 ± 0.048	1.1 ± 0.057	1.11 ± 0.08
UniProt Q00613 and related entries	1.03 ± 0.012	1.03 ± 0.033	1.02 ± 0.04	0.993 ± 0.051	0.989 ± 0.023	0.97 ± 0.044
UniProt P62314	1 ± 0.033	1.04 ± 0.051	1.05 ± 0.036	1.09 ± 0.035	1.11 ± 0.055	1.18 ± 0.12
UniProt Q04760 and related entries	0.985 ± 0.039	1.02 ± 0.052	0.971 ± 0.02	1.02 ± 0.061	0.997 ± 0.025	0.995 ± 0.06
CCT2 (UniProt P78371)	0.955 ± 0.035	0.916 ± 0.033	0.909 ± 0.081	0.918 ± 0.086	0.905 ± 0.1	0.909 ± 0.15
CDK5 (UniProt Q00535)	0.974 ± 0.033	0.946 ± 0.053	0.962 ± 0.013	0.961 ± 0.016	0.965 ± 0.034	0.954 ± 0.021
RPS27A (UniProt P62979)	0.997 ± 0.063	1.01 ± 0.018	0.928 ± 0.061	0.942 ± 0.056	0.941 ± 0.087	0.953 ± 0.079
UniProt P61960 and related entries	0.981 ± 0.054	1.02 ± 0.1	0.969 ± 0.056	0.9077 ± 0.0081	0.922 ± 0.016	0.884 ± 0.054

For reference, some entries already given.
Target	NP40-soluble protein abundance (concentration: 1mM)	NP40-soluble protein abundance (concentration: 2mM)	NP40-soluble protein abundance (concentration: 4mM)	NP40-soluble protein abundance (concentration: 6mM)	NP40-soluble protein abundance (concentration: 8mM)	NP40-soluble protein abundance (concentration: 10mM)
UniProt P62256	1.02 ± 0.035	1.09 ± 0.093	1.01 ± 0.015	1.04 ± 0.012	0.994 ± 0.022	1 ± 0.015
SRP54 (UniProt P61011)	1 ± 0.014	0.9835 ± 0.009	1.03 ± 0.03	1.11 ± 0.053	1.13 ± 0.046	1.13 ± 0.082
FLI1 (UniProt Q01543)	1.05 ± 0.025	1.1 ± 0.049	1.08 ± 0.041	1.04 ± 0.029	1.05 ± 0.023	1.07 ± 0.049
HMGCS1 (UniProt Q01581)	0.976 ± 0.018	0.944 ± 0.025	0.954 ± 0.027	0.95 ± 0.019	0.942 ± 0.025	0.936 ± 0.019
UniProt Q00325 and related entries	0.934 ± 0.063	0.855 ± 0.052	0.952 ± 0.077	1.06 ± 0.12	1.12 ± 0.095	1.1 ± 0.092
UniProt P61962	0.989 ± 0.013	0.913 ± 0.12	0.945 ± 0.042	0.932 ± 0.022	0.958 ± 0.013	0.898 ± 0.034
UniProt P56270-2	1.05 ± 0.047	1.09 ± 0.068	1.05 ± 0.097	1.06 ± 0.048	1.1 ± 0.057	1.11 ± 0.08
UniProt Q00613 and related entries	1.03 ± 0.012	1.03 ± 0.033	1.02 ± 0.04	0.993 ± 0.051	0.989 ± 0.023	0.97 ± 0.044
UniProt P62314	1 ± 0.033	1.04 ± 0.051	1.05 ± 0.036	1.09 ± 0.035	1.11 ± 0.055	1.18 ± 0.12
UniProt Q04760 and related entries	0.985 ± 0.039	1.02 ± 0.052	0.971 ± 0.02	1.02 ± 0.061	0.997 ± 0.025	0.995 ± 0.06
CCT2 (UniProt P78371)	0.955 ± 0.035	0.916 ± 0.033	0.909 ± 0.081	0.918 ± 0.086	0.905 ± 0.1	0.909 ± 0.15
CDK5 (UniProt Q00535)	0.974 ± 0.033	0.946 ± 0.053	0.962 ± 0.013	0.961 ± 0.016	0.965 ± 0.034	0.954 ± 0.021
RPS27A (UniProt P62979)	0.997 ± 0.063	1.01 ± 0.018	0.928 ± 0.061	0.942 ± 0.056	0.941 ± 0.087	0.953 ± 0.079
UniProt P61960 and related entries	0.981 ± 0.054	1.02 ± 0.1	0.969 ± 0.056	0.9077 ± 0.0081	0.922 ± 0.016	0.884 ± 0.054
